From patent US20200016266A1
Substitutions are numbered along the chain they refer to. Results are given in words; binding and its absence hold for the method and conditions named.

What was measured:
Assay in all cases: PEPperMAP conformational epitope mapping peptide array, fluorescence intensity [a.u.]
QANLTVK = molecular target: T1, QANLTVK
T1 sequence (peptide): QANLTVK

[1] = molecular target: T2, …
T2 sequence (peptide): RGEVAPDAKSFVL

[2] = molecular target: T3, …; remark: listed apart in the source
T3 sequence (peptide): FVLNLGKDSNNLC

[3] = molecular target: T4, …; remark: listed apart in the source
T4 sequence (peptide): MACGLVASNLNLK

[4] = molecular target: T5, …; remark: listed apart in the source
T5 sequence (peptide): NLCLHFNPRF

[5] = molecular target: T6, …; remark: listed apart in the source
T6 sequence (peptide): CNSKDGGAWGTEQ

FDGSGSG = molecular target: T7, FDGSGSG
T7 sequence (peptide): FDGSGSG

GSGSGSG = molecular target: T8, GSGSGSG
T8 sequence (peptide): GSGSGSG

[6] = molecular target: T9, …; remark: listed apart in the source
T9 sequence (peptide): MACGLVASNL

[7] = molecular target: T10, …; remark: listed apart in the source
T10 sequence (peptide): TEQREAVFPF

[8] = molecular target: T11, …; remark: listed apart in the source
T11 sequence (peptide): NLCLHFNPRFNAH

[9] = molecular target: T12, …; remark: listed apart in the source
T12 sequence (peptide): NAHGDANTIV

GYEFKFP = molecular target: T13, GYEFKFP
T13 sequence (peptide): GYEFKFP

[10] = molecular target: T14, …; remark: listed apart in the source
T14 sequence (peptide): CVAFDGSGSG

SVAEVCI = molecular target: T15, SVAEVCI
T15 sequence (peptide): SVAEVCI

NLEAINY = molecular target: T16, NLEAINY
T16 sequence (peptide): NLEAINY

[11] = molecular target: T17, …; remark: listed apart in the source
T17 sequence (peptide): QPGSVAEVCI

LHFNPRF = molecular target: T18, LHFNPRF
T18 sequence (peptide): LHFNPRF

[12] = molecular target: T19, …; remark: listed apart in the source
T19 sequence (peptide): RGEVAPDAKS

[13] = molecular target: T20, …; remark: listed apart in the source
T20 sequence (peptide): TFDQANLTVK

[14] = molecular target: T21, …; remark: listed apart in the source
T21 sequence (peptide): CNSKDGGAWG

REAVFPF = molecular target: T22, REAVFPF
T22 sequence (peptide): REAVFPF

[15] = molecular target: T23, …; remark: listed apart in the source
T23 sequence (peptide): NLKPGECLRVRGE

[16] = molecular target: T24, …; remark: listed apart in the source
T24 sequence (peptide): LPDGYEFKFP

[17] = molecular target: T25, …; remark: listed apart in the source
T25 sequence (peptide): NAHGDANTIVCNS

KDGGAWG = molecular target: T26, KDGGAWG
T26 sequence (peptide): KDGGAWG

[18] = molecular target: T27, …; remark: listed apart in the source
T27 sequence (peptide): NLKPGECLRV

[19] = molecular target: T28, …; remark: listed apart in the source
T28 sequence (peptide): NRLNLEAINY

[20] = molecular target: T29, …; remark: listed apart in the source
T29 sequence (peptide): TEQREAVFPFQPG

GDANTIV = molecular target: T30, GDANTIV
T30 sequence (peptide): GDANTIV

[21] = molecular target: T31, …; remark: listed apart in the source
T31 sequence (peptide): FVLNLGKDSN

Measured: binding

B1: anti-Gal1 Clone 21, fully human monoclonal antibody (antibody, V domains shown)
VH: EVQLLESGGGLVQPGGSLRLSCAASGFTFSSYAMSWVRQAPGKGLEWVSEIGRVGVNTLYADSVKGRFTISRDNSKNTLYLQMNSLRAEDTAVYYCAKKATQFDYWGQGTLVTVSS
VL: DIQMTQSPSSLSASVGDRVTITCRASQSISSYLNWYQQKPGKAPKLLIYRASRLQSGVPSRFSGSGSGTDFTLTISSLQPEDFATYYCQQTIGPPDTFGQGTKVEIKR
no binding (tested: 10 µg/ml): all assays above

B2: anti-Gal1 Clone 42, fully human monoclonal antibody (antibody, V domains shown)
VH: EVQLLESGGGLVQPGGSLRLSCAASGFTFSSYAMSWVRQAPGKGLEWVSGISGSGDYTSYADSVKGRFTISRDNSKNTLYLQMNSLRAEDTAVYYCAKGYGAFDYWGQGTLVTVSS
VL: B1 VL with R50G, R53W, T91S, I92A, G93N, P94Y, D96S
no binding (tested: 10 µg/ml): all assays above
